assay: Electrochemical switching (Switch: reversible photochromic/electrochromic conversion); assay type: physicochemical; parameters: key: Y: “Switch” refers to the ability (yes or no) of the compound to be reversibly converted under photochromic and electrochromic conditions between a ring-open isomer and ring-closed isomer; details: reversibly converted under photochromic and electrochromic conditions

For `CC(C)(C)c1ccc(-c2cc(C3=C(c4cc(-c5ccc(C(C)(C)C)s5)sc4-c4ccc(C(C)(C)C)s4)C(F)(F)C(F)(F)C3(F)F)c(-c3ccc(C(C)(C)C)s3)s2)s1` [S003, 3′,3″″-(perfluorocyclopent-1-ene-1,2-diyl)bis(5,5″-di-tert-butyl-2,2′:5′,2″-terthiophene)], which Switch is on record?
Its Switch is “Y”.

With `FC1(F)C(c2cc(-c3ccccc3)sc2-c2ccccc2)=C(c2cc(-c3cccs3)sc2-c2cccs2)C(F)(F)C1(F)F` [S005, 3′-(2-(2,5-diphenylthiophen-3-yl)-3,3,4,4,5,5-hexafluorocyclopent-1-en-1-yl)-2,2′:5′,2″-terthiophene] as the compound, how does the Switch read?
Its Switch is “Y”.

Which Switch does the source give for `FC1(F)C(c2cc(-c3ccccc3)sc2-c2ccccc2)=C(c2cc(-c3ccc(Cl)cc3)sc2-c2ccccc2)C(F)(F)C1(F)F` [S006, 5-(4-chlorophenyl)-3-(2-(2,5-diphenylthiophen-3-yl)-3,3,4,4,5,5-hexafluorocyclopent-1-en-1-yl)-2-phenylthiophene] here?
Its Switch is “Y”.

With `Cc1ccc(-c2cc(C3=C(c4cc(-c5ccc(C)s5)sc4-c4ccc(C)s4)C(F)(F)C(F)(F)C3(F)F)c(-c3ccc(C)s3)s2)s1` [S007, 3′,3″″-(perfluorocyclopent-1-ene-1,2-diyl)bis(5,5″-dimethyl-2,2′:5′,2″-terthiophene)] as the compound, how does the Switch read?
Its Switch is “Y”.

For `Cc1cc(-c2cc(C3=C(c4cc(-c5cc(C)c(C)s5)sc4-c4cc(C)c(C)s4)C(F)(F)C(F)(F)C3(F)F)c(-c3cc(C)c(C)s3)s2)sc1C` [S011], which Switch is on record?
Its Switch is “Y”.

With `FC1(F)C(c2c(-c3ccccc3)sc3ccccc23)=C(c2c(-c3ccccc3)sc3ccccc23)C(F)(F)C1(F)F` [S014, 3,3′-(perfluorocyclopent-1-ene-1,2-diyl)bis(2-phenylbenzo[b]thiophene)] as the compound, how does the Switch read?
Its Switch is “Y”.

For `Cc1c(-c2ccccc2)sc(-c2ccccc2)c1C1=C(c2c(-c3ccccc3)sc(-c3ccccc3)c2C)C(F)(F)C(F)(F)C1(F)F` [S017, 4,4′-(perfluorocyclopent-1-ene-1,2-diyl)bis(3-methyl-2,5-diphenylthiophene)], which Switch is on record?
Its Switch is “Y”.

Which Switch does the source give for `COc1ccc(-c2cc(C3=C(c4cc(-c5ccc(OC)s5)sc4-c4ccc(OC)s4)C(F)(F)C(F)(F)C3(F)F)c(-c3ccc(OC)s3)s2)s1` [S020, 3′,3″″-(perfluorocyclopent-1-ene-1,2-diyl)bis(5,5″-dimethoxy-2,2′:5′,2″-terthiophene)] here?
Its Switch is “Y”.

With `O=C(O)c1ccc(-c2cc(C3=C(c4cc(-c5ccc(C(=O)O)s5)sc4-c4ccc(C(=O)O)s4)C(F)(F)C(F)(F)C3(F)F)c(-c3ccc(C(=O)O)s3)s2)s1` [S024] as the compound, how does the Switch read?
Its Switch is “Y”.

Which Switch does the source give for `FC1(F)C(c2cc(-c3ccc(Cl)s3)sc2-c2ccc(Cl)s2)=C(c2cc(-c3ccc(Cl)s3)sc2-c2ccc(Cl)s2)C(F)(F)C1(F)F` [S026, 3′,3″″-(perfluorocyclopent-1-ene-1,2-diyl)bis(5,5″-dichloro-2,2′:5′,2″-terthiophene)] here?
Its Switch is “Y”.

For `Cc1ccc(-c2sc(-c3cccs3)cc2C2=C(c3cc(-c4cccs4)sc3-c3ccc(C)s3)C(F)(F)C(F)(F)C2(F)F)s1` [S027, 3′,3″″-(perfluorocyclopent-1-ene-1,2-diyl)bis(5-methyl-2,2′:5′,2″-terthiophene)], which Switch is on record?
The Switch was “Y”.

Which Switch does the source give for `c1ccc(-c2nc(-c3nc(-c4ccccc4)sc3-c3nc(-c4ccccc4)sc3-c3ccccc3)c(-c3ccccc3)s2)cc1` [S032, 2,2′,2″,5,5″-pentaphenyl-4,4′:5′,4″-terthiazole] here?
Its Switch is “Y”.

For `Cc1ccc(-c2ccc(-c3cc(C4=C(c5cc(-c6ccc(-c7ccc(C)s7)s6)sc5-c5ccc(C)s5)C(F)(F)C(F)(F)C4(F)F)c(-c4ccc(C)s4)s3)s2)s1` [S034, 3′,3″″′-(perfluorocyclopent-1-ene-1,2-diyl)bis(5,5″′-dimethyl-2,2′:5′,2″:5″,2″′-quaterthiophene)], which Switch is on record?
Its Switch is “Y”.

For `FC1(F)C(c2nc(-c3ccccc3)sc2-c2ccccc2)=C(c2nc(-c3ccccc3)sc2-c2ccccc2)C(F)(F)C1(F)F` [S035, 4,4′-(perfluorocyclopent-1-ene-1,2-diyl)bis(2,5-diphenylthiazole)], which Switch is on record?
The Switch was “Y”.
